Measurements from patent publication EP3178809A1, “HYBRID MOLECULE WITH STRUCTURAL AND ACTIVITY ELEMENTS OF RESVERATROL AND DIALLYL SULFIDE” (Albert-Ludwigs-Universität Freiburg, priority 2015, dated 2017).
At least one structure is not confirmed: it was looked up by name or label, or the drawing left a doubt.

Test system: NO Dioxygenase
Assay: Test for inhibition of NO dioxygenase (enhanced effect of NO donor DEA NONOate on superoxide-producing cells)
Format: cell-based
Excerpt: Die Messung erfordert, dass durch geeignete Maßnahmen, wie bei Scheit und Bauer, 2015 beschrieben, die Tumorzellkatalase maximal inhibiert, die Hemmwirkung von H2O2 auf ·NO und Peroxynitrit durch Anwesenheit eines Katalasemimetikums verhindert und de novo Synthese von ·NO durch die Anwesenheit des NOS Inhibitors L-NAME verhindert wird.
Die Messung der extrazellulären Superoxidanionenkonzentration von Tumorzellen sowie die Bestrahlungstechnik mit Niedrigdosis-Gammastrahlung wird in der Arbeit Temme and Bauer, 2013 beschrieben. Die Hemmung der NOD wird bei Scheit and Bauer, 2015, beschrieben. Viele Versuchsergebnisse wurden in den Figuren dargestellt.

Structure (SMILES): COc1cc(-c2[o+]c3cc(O)cc(O)c3cc2O)cc(OC)c1O [Malvidin]
- Hemmung der NO Dioxygenase: Hemmung dieses Enzyms
